# The whole screen tested about 320,000 compounds, of which about 2,100 (0.66%) were called active. Inconclusive results, whose numbers are uncertain, are shown with a selection of clear calls. The call rests on the fitted dose curve; in most records, active means well fitted inhibition curve with a large enough effect in the signal ratio, with a control signal flat (not every such curve was filed as active); inconclusive means small, poorly fitted or top-dose-only effect, or effect the other way, or a change in a side signal; inactive means flat fitted curve, though single readings scatter; the % refers to the signal ratio. Potencies beside an inconclusive call are fits to weak or partial responses and may not hold up.
# Test: qHTS Assay for Lipid Storage Modulators in Drosophila S3 Cells
# Details: BODIPY lipid droplet fluorescence, 18-24 h, cells fed with added oleic acid; lipid storage change, negative = inhibition: at 46.1 µM (top of the series) unless noted
# Outline: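 Drosophila S3 cells got compounds at several concentrations plus oleic acid (400 uM solution). Laser-scanning cytometry with 488 nm excitation read lipid droplets at 500-530 nm and cells at 575-640 nm. Percent activity was relative to 20 uM Triacsin C.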
# On the % scale 0 is the no-effect control and ±100 the full control effect; potency means the concentration at half of the fitted maximal effect.
SMILES,Potency,"lipid storage change, negative = inhibition"
Cn1c(=O)c2c(nc(-n3ccnc3)n2C)n(C)c1=O,"inconclusive: 6.51 µM [rising, single point]",
CCOC(=O)c1ccc(S(=O)(=O)N2CCN(C(=O)c3cc4ccccc4o3)CC2)cc1,,inconclusive: -30.5%
Cc1ccn(CCNC(=O)C2CCC(=O)N(CCc3ccc(Cl)cc3)C2)n1 (stereo unspecified),,inconclusive: 43.4%
Cc1nc(SCC(=O)Nc2ccc(OCc3ccccc3)cc2)n[nH]1,,inconclusive: 17.5%
COc1ccc(S(=O)(=O)Nc2ccc(F)c(Cl)c2)cc1OC,,inconclusive: -30.6%
O=C(OCN1C(=O)c2ccccc2C1=O)c1cccc(OC(F)F)c1,,inconclusive: -10.9%
CCOC(=O)c1cn[nH]c1C(F)(F)F,"inconclusive: 0.092 µM [falling, full curve, poor fit]",
COc1cc2ncnc(NCc3cccs3)c2cc1OC,,inconclusive: -8.71%
CC(=O)NCCC1CCN(C(=O)c2cc(COc3ccc(C)nc3)on2)CC1,,inconclusive: -97.6%
C/C(=N\Nc1nc2ccccc2[nH]1)c1ccc(Cl)s1,,inconclusive: -38.1%
C/C(=N\NC(=O)CC#N)c1ccc(Oc2ccccc2)cc1,,inactive
Cc1ccccc1CNC(=O)C1CCCN(c2nnc(C)c3c(C)n(-c4ccccc4)nc23)C1 (stereo unspecified),,inconclusive: -4.11%
O=c1c2ccccc2nc2n1CCCN2,,inconclusive: -7.04%
C=C(Br)Cn1c(CC(C)C)nc2ccccc21,,inconclusive: 10.2%
CCN1CCN(Cc2c(C(=O)N/N=C(\C)c3ccc(Cl)cc3)nnn2-c2nonc2N)CC1,"inconclusive: 6.51 µM [falling, single point]",
O=C(c1ccccc1F)N(Cc1ccccc1)Cc1ccccc1,"inconclusive: 4.61 µM [activator, partial curve, poor fit]",
N#Cc1c(NCc2ccccc2)ccnc1NCc1cccnc1,,inconclusive: -83.6%
Cc1csc(SCC(=O)NCCc2ccc(Cl)cc2)n1,"inconclusive: 6.51 µM [cytotoxic, single point]",
CNc1nc(N)c([N+](=O)[O-])c(NCc2ccccc2)n1,,inconclusive: 30.6%
CC1CC(C)CN(C(=O)COC(=O)c2cccc(S(=O)(=O)N(C)c3ccccc3)c2)C1 (stereo unspecified),,inconclusive
COC(=O)c1ccc(C)c(NC(=O)Cc2coc3cc(OC)ccc23)c1,,inconclusive: 37.9%
Cc1ccc(N2C(=O)CC2(C#N)c2ccc(OCc3ccccc3)cc2)cc1 (stereo unspecified),"inconclusive: 6.51 µM [falling, single point]",
CC1CNc2c(cccc2S(=O)(=O)N[C@@H](CCCN=C(N)N)C(=O)N2CC[C@@H](C)C[C@@H]2C(=O)O)C1 (stereo partly specified),,inconclusive: 3.72%
COc1ccccc1CCNCc1ccc(OC)c(OCc2ccccc2)c1,"inconclusive: 29.1 µM [cytotoxic, single point]",
CS(=O)(=O)CCC(C(=O)OCc1ccc(Cl)cc1)N1C(=O)c2ccccc2C1=O (stereo unspecified),,inconclusive: 22.1%
Cc1c(C(=O)N2CCN(C/C=C/c3ccccc3)CC2)oc2c(F)cccc12,"inconclusive: 32.6 µM [falling, partial curve, poor fit]",

# As a working copy, part of the list above.
SMILES,Potency,"lipid storage change, negative = inhibition"
Cn1c(=O)c2c(nc(-n3ccnc3)n2C)n(C)c1=O,"inconclusive: 6.51 µM [rising, single point]",
CCOC(=O)c1ccc(S(=O)(=O)N2CCN(C(=O)c3cc4ccccc4o3)CC2)cc1,,inconclusive: -30.5%
Cc1ccn(CCNC(=O)C2CCC(=O)N(CCc3ccc(Cl)cc3)C2)n1 (stereo unspecified),,inconclusive: 43.4%

# Carrying on:

SMILES,Potency,"lipid storage change, negative = inhibition"
Cc1occc1-c1nnc(SCC(=O)NC2CCCC2)n1-c1ccccc1,,inconclusive: -0.58%
O=C(COc1ccc(Cl)cc1)NC1CC1,,inconclusive: 13.2%
O=C(Nc1ccc(Br)cn1)c1ccc(Cl)s1,,inconclusive: -22.9%
CC(=O)Nc1ccc(S(=O)(=O)NCC(=O)OCC(=O)NC(=O)C2CCCCC2)cc1,,inconclusive: -10.9%
O=c1c2c(-c3ccco3)csc2nc(SCc2cn3cccnc3n2)n1-c1ccccc1,,inconclusive: 14.1%
Nc1nc(SCc2c(F)cccc2Cl)[nH]c(=O)c1-c1ccccc1,,inconclusive: -80.9%
Cc1ccc2c(c1)C(c1ccc(O)cc1)(c1ccc(O)cc1)C(=O)N2C,,inconclusive: -19.2%
COc1ccc2c(c1)CC(C1(O)C(=O)N(C)c3ccccc31)C2=O (stereo unspecified),,inconclusive: -4%
CCOC(=O)[C@@H]1[C@H]2COc3cc(OC)ccc3[C@@H]2N2C(=O)N(c3cccc(Cl)c3)C(=O)[C@]12C,,inconclusive: -47.5%
O=C(CCc1ccccc1)Nc1ccc(S(=O)(=O)Nc2nccs2)cc1,"inconclusive: 29.1 µM [falling, partial curve, poor fit]",
O=C(COc1ccc(S(=O)(=O)N2CCOCC2)cc1)NCC1CCCO1 (stereo unspecified),"inconclusive: 0.731 µM [falling, partial curve, poor fit]",
O=C(NCCc1ccccc1)c1cccs1,,inconclusive: 34.9%
COc1ccccc1C(=O)NC(=O)COC(=O)CCOc1cc(C)ccc1C,"inconclusive: 20.6 µM [activator, single point]",
CCOC(=O)C1=C(C)NC(=O)NC1c1c(OC)ccc2ccccc12 (stereo unspecified),,inconclusive: 68.1%
CCCN(C(=O)CSc1nnc2ccccn12)C1CCS(=O)(=O)C1 (stereo unspecified),,inconclusive: -8.42%
CCCCn1c(N)c(N(CC(C)C)C(=O)c2cccc(S(=O)(=O)N(C)c3ccccc3)c2)c(=O)[nH]c1=O,,inconclusive
CCCCn1c(N)c(N(CC)C(=O)c2ccc(Cl)c(Cl)c2)c(=O)[nH]c1=O,,inconclusive: -100%
CC(=O)Nc1nn(C)c2nc3cc(C)ccc3cc12,"inconclusive: 3.26 µM [activator, partial curve]",
CC(C)(C)OC(=O)C1C(=O)CC(C)(O)C(C(=O)OC(C)(C)C)C1c1ccco1 (stereo unspecified),"inconclusive: 14.6 µM [falling, partial curve]",
CC(C)(C)NC(=O)CCN(/N=C/c1ccc([N+](=O)[O-])o1)C1=NS(=O)(=O)c2ccccc21,"inconclusive: 7.31 µM [falling, partial curve]",
CC(=O)N1CCN(c2ccccc2NC(=O)c2ccc(Br)o2)CC1,"inconclusive: 0.58 µM [activator, single point]",
Cc1ccc(NC(=O)CSc2nc3c(cc2C#N)C(=O)CCC3)cc1S(=O)(=O)N(C)C,,inconclusive: -52.5%
Cc1ccc(C)c(NC(=O)CN(C)C(=O)c2nn(C)c(=O)c3ccccc23)c1,,inconclusive: 29.3%
Cc1ccc(N2C(=O)c3ccccc3NC2(C(=O)O)c2ccccc2)cc1Cl (stereo unspecified),,inconclusive: 70.4%
Cc1ccc(S(=O)(=O)N2CCN(c3cnn(-c4ccccc4)c(=O)c3Cl)CC2)cc1,,inconclusive: -2.02%
COC(=O)c1ccccc1NC(=O)C(=O)NCc1ccncc1,"inconclusive: 4.61 µM [activator, single point]",

SMILES,Potency,"lipid storage change, negative = inhibition"
CC1CCCCN1C(=O)CCS(=O)(=O)Cc1ccccc1 (stereo unspecified),,inconclusive: 1.07%
CC(C)c1nnc(NC(=O)c2cnccn2)s1,"inconclusive: 0.366 µM [falling, partial curve]",
COc1ccc(-c2nnc(CSc3nnc(-c4ccncc4)n3C3CCCCC3)o2)cc1OC,"inconclusive: 0.326 µM [activator, partial curve, poor fit]",
COc1ccc(CC(=O)Nc2ccc(OC)nc2)cc1,,inconclusive: 64.4%
Cc1nc2nc(SCC(=O)NCCCN3CCCCCC3)nn2c(C)c1Cc1ccccc1,,inconclusive: -26%
CCS(=O)(=O)N1CCC(C(=O)NCCN2CCN(Cc3ccccc3)CC2)CC1,,inconclusive: 36.3%
O=C(CN1CCN(Cc2ccc(F)cc2Cl)C1=O)NCCc1ccc(Cl)cc1,"inconclusive: 10.3 µM [falling, partial curve]",
O=C(COc1ccc(Cl)cc1Cl)Nc1ccccc1NS(=O)(=O)c1cccs1,"inconclusive: 29.1 µM [cytotoxic, single point]",
COc1ccc(C(=O)C2CCCN(S(=O)(=O)N(C)C)C2)c(C)c1 (stereo unspecified),"inconclusive: 1.46 µM [activator, partial curve]",
COc1ccc(CNC(=O)COC(=O)c2ccc(Br)cc2)cc1,,inconclusive: -20.9%
COc1ccc(Cl)cc1NC(=O)C(C)Sc1nnc(C2CC2)n1C1CC1 (stereo unspecified),,inconclusive: -78.3%
CSc1nsc(SCc2ccc(Cl)cc2)n1,,inconclusive: 21.4%
Cc1ccc2cccc(O)c2[n+]1[O-],,inconclusive: 31.4%
CC(C)Cc1nnc(NC(=O)CCC(=O)N2CC(C)CC(C)C2)s1 (stereo unspecified),,inconclusive: -78%
CCn1c(SCC(=O)N2CC(C)OC(C)C2)nc2c([nH]c3ccccc32)c1=O (stereo unspecified),"inconclusive: 1.84 µM [falling, partial curve]",
CC(=O)Cc1nsc(NC(=O)c2ccc(-c3cccc(C(F)(F)F)c3)o2)n1,"inconclusive: 11.6 µM [activator, partial curve, poor fit]",
CCc1nc2scc(-c3cccs3)c2c(=O)o1,,inactive
CCCCn1c(CNC(=O)C23CC4CC(CC(C4)C2)C3)nnc1SC(C)CC (stereo unspecified),,inconclusive: -27.8%
COc1cc(C(=O)N2CCC(NC(=O)C(Cc3ccc(C(C)C)cc3)NC(C)=O)CC2)cc(OC)c1OC (stereo unspecified),,inconclusive: -47.3%
Cc1ccc(CNC(=O)Cn2cnc(S(=O)(=O)N3CCC(C)CC3)c2)o1,,inconclusive: 35.6%
O=C(Nc1nc(-c2ccc(Cl)cc2)cs1)C1CCCO1 (stereo unspecified),,inconclusive: 33.2%
Cc1ccc(S(=O)(=O)NCc2c(-c3ccccc3)noc2C)cc1,,inconclusive: -1.92%
COc1ccccc1C(=O)COC(=O)CCCN=C1NS(=O)(=O)c2ccccc21,,inconclusive: 18.7%
Cn1cc(S(=O)(=O)NCC2CCCO2)c(=O)n(C)c1=O (stereo unspecified),"inconclusive: 0.517 µM [falling, partial curve, poor fit]",

# Gathered by group: those above with a COOH group.
SMILES,Potency,"lipid storage change, negative = inhibition"
CC1CNc2c(cccc2S(=O)(=O)N[C@@H](CCCN=C(N)N)C(=O)N2CC[C@@H](C)C[C@@H]2C(=O)O)C1 (stereo partly specified),,inconclusive: 3.72%
Cc1ccc(N2C(=O)c3ccccc3NC2(C(=O)O)c2ccccc2)cc1Cl (stereo unspecified),,inconclusive: 70.4%

# From PubChem BioAssay AID2685 (National Center for Advancing Translational Sciences (NCATS), 2010)
